We go through 38 targets from the supplement of paper PMC12067093, “Discovery and optimisation of a covalent ligand for TRIM25 and its application to targeted protein ubiquitination” (Chemical Science, 2025).

Amino acid sequences for entries named in this document (tags omitted). A change or cut given only in a name is not applied to a line headed by its entry.
UniProt Q86W42: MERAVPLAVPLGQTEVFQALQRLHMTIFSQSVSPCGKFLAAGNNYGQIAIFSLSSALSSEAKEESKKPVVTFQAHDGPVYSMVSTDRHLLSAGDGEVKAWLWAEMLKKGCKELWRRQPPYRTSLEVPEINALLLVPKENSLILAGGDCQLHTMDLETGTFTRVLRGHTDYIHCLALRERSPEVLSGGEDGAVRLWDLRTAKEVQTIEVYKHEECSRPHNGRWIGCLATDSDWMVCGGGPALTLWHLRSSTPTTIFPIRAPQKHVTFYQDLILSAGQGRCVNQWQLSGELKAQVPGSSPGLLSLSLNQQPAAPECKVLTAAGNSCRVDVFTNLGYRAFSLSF
UniProt P17987, whole entry, looked up: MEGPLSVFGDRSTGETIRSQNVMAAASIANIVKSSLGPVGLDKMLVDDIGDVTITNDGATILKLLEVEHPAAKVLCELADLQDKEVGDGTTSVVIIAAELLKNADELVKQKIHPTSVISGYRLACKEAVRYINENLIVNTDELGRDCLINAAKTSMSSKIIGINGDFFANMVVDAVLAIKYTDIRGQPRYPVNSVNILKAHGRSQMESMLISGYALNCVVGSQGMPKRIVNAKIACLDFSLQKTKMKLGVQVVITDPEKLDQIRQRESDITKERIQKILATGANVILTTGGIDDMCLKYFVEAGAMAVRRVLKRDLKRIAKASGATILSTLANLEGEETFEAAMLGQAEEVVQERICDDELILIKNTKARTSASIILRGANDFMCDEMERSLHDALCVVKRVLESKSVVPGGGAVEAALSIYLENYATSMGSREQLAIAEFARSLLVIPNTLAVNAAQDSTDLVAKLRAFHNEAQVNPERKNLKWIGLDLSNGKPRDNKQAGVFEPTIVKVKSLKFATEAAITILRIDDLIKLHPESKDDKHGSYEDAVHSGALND
UniProt Q9Y490: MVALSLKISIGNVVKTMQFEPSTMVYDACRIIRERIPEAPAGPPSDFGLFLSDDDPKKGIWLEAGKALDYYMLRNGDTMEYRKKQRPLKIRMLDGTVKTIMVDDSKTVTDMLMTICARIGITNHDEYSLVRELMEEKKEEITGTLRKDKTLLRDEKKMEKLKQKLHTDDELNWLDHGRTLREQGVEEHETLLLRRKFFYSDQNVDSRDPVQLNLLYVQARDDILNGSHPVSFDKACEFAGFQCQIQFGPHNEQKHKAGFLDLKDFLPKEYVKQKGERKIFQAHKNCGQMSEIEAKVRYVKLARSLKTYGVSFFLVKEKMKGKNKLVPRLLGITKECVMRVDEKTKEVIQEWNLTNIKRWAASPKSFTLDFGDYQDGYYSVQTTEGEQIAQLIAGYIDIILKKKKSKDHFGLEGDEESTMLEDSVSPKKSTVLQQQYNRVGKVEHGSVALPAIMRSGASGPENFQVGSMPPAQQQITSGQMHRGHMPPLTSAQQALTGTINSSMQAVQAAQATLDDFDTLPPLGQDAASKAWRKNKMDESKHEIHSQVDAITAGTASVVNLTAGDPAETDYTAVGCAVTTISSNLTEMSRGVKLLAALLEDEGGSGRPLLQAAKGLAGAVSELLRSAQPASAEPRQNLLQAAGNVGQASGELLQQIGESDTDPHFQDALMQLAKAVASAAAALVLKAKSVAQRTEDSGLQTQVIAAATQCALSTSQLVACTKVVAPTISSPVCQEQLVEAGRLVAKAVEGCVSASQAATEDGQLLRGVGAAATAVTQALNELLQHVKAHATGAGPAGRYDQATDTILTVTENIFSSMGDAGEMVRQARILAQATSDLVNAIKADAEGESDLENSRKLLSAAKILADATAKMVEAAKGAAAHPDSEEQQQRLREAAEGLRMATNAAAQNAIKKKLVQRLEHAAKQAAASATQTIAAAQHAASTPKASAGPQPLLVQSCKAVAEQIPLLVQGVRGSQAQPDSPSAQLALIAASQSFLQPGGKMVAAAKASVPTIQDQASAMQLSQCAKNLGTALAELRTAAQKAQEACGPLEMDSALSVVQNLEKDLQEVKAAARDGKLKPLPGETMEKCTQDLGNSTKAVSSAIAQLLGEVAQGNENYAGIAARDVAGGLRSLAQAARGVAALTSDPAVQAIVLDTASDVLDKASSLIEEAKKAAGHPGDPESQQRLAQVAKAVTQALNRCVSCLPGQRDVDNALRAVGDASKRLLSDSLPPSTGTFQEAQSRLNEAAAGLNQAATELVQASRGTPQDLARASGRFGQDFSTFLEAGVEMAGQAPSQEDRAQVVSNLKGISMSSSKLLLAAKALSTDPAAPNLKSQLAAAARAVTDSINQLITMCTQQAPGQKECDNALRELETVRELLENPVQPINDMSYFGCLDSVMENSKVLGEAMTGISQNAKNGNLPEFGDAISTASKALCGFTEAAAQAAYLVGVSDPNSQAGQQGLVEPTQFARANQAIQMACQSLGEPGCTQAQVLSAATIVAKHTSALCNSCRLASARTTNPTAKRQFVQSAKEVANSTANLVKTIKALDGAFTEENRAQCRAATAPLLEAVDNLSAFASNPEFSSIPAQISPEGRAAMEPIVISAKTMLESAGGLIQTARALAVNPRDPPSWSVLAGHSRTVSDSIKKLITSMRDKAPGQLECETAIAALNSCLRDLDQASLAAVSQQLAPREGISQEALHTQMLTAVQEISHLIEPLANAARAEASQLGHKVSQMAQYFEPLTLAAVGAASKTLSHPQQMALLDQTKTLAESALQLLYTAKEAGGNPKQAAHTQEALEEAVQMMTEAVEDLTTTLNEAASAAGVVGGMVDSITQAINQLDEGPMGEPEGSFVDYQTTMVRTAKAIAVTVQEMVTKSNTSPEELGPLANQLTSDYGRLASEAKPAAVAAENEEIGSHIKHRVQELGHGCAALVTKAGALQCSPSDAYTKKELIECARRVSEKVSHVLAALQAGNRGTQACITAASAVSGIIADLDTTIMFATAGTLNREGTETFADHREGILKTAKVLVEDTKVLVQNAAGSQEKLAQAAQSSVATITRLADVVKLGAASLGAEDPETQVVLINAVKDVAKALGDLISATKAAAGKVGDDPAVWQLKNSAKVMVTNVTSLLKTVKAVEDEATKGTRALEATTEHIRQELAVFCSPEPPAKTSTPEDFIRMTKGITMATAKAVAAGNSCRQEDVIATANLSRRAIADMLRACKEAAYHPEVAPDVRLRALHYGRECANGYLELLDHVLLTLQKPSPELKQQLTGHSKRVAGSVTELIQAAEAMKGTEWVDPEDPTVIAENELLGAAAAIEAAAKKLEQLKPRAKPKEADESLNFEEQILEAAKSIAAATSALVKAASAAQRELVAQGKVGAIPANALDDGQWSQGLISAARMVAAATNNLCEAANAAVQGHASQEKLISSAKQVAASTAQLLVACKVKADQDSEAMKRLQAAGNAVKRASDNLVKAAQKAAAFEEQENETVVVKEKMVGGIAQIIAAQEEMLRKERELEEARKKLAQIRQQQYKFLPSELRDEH
UniProt Q9Y4R8, whole entry, looked up: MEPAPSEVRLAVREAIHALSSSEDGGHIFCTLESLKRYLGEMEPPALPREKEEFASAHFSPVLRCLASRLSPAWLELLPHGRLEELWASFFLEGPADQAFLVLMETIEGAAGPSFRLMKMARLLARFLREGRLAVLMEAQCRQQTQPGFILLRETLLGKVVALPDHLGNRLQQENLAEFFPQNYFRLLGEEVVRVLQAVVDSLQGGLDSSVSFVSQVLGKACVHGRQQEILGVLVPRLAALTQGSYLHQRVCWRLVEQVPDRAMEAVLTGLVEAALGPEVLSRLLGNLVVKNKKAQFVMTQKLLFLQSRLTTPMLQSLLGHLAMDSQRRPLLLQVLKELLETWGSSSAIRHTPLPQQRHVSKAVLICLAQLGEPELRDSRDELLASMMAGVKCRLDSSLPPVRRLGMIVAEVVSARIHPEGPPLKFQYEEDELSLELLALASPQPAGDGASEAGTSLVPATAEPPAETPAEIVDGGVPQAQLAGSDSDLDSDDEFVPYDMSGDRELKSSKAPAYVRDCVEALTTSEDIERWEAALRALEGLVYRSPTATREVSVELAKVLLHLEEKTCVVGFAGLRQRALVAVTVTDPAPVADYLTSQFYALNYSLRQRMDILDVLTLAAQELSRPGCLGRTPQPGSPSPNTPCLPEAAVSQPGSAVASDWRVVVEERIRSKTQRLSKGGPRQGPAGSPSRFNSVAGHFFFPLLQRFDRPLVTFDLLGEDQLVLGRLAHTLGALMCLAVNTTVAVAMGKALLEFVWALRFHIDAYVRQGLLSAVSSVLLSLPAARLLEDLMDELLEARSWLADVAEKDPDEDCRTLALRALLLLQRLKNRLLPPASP
UniProt Q8NI27: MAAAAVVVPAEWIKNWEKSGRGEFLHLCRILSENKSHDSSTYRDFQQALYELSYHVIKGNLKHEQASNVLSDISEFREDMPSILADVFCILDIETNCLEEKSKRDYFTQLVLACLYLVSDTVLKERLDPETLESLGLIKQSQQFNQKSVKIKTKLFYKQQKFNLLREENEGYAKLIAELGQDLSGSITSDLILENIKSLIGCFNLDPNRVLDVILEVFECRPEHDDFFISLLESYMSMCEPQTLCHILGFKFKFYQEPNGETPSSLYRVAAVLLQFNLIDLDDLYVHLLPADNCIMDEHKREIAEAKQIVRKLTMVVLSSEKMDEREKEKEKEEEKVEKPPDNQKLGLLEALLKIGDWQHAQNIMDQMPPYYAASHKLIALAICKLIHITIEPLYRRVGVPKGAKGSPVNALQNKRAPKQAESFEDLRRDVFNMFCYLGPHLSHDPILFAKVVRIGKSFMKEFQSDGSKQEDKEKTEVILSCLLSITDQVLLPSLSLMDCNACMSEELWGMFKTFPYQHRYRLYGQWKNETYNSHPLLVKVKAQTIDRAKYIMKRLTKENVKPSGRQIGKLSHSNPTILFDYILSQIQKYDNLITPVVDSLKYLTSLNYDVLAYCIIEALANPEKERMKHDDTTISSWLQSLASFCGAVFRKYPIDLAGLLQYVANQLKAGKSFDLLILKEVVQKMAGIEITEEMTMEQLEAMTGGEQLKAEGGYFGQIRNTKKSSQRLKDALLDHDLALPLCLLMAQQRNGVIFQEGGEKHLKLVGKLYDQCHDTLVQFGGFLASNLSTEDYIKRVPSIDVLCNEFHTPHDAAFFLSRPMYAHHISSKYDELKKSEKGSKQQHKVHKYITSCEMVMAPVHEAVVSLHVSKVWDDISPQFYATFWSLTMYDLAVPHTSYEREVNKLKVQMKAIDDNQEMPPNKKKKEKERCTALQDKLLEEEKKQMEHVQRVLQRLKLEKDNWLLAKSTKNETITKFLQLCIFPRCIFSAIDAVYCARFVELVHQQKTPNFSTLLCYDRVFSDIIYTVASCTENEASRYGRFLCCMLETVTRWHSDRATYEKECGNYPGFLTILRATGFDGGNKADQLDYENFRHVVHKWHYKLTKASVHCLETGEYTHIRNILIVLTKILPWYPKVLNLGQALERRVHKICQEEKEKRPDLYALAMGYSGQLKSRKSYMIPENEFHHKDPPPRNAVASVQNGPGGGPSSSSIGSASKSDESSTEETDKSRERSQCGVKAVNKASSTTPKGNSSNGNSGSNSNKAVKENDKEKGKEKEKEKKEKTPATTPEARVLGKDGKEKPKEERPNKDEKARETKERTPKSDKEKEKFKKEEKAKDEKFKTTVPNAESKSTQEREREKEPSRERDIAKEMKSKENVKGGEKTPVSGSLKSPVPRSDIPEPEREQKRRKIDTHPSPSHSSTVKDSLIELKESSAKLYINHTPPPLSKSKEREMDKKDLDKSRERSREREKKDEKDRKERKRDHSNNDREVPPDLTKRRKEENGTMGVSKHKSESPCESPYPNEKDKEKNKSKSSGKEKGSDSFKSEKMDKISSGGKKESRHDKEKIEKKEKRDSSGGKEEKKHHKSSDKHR
UniProt Q15554: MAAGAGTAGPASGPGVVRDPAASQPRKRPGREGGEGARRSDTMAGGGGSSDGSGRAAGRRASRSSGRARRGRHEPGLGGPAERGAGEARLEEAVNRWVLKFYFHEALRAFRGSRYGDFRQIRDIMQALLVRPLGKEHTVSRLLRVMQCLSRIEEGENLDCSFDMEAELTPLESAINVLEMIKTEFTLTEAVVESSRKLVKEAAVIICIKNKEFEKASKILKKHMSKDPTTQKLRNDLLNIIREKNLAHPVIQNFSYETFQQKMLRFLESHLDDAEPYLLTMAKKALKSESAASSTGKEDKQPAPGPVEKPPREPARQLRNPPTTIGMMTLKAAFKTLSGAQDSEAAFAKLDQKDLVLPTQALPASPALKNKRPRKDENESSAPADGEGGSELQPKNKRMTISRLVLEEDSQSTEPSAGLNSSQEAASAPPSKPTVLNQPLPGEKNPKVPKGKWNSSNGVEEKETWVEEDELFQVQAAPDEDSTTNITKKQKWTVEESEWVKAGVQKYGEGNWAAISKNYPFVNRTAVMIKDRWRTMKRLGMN
UniProt Q99595: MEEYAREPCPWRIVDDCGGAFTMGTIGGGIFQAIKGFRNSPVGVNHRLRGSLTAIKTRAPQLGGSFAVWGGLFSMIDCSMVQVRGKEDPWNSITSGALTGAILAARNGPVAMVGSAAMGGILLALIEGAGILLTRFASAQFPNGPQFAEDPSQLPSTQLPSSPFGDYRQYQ

Compound in the assay: Cc1cc(ccc1-c1ccccc1)C(=O)N1CCCN(CC1)C(=O)CCl [compound 10]
The experiment in a line: probe-labelled cysteine peptide fold change vs DMSO (competition) (log2 fold change); higher = less target engagement (more negative = stronger competition). The following applies: THP-1, incubation time: 4 h.

The list shows a part of the results.
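Note: competitive profiling in live THP-1 cells: cysteine peptides tagged with an iodoacetamide desthiobiotin (IA-DTB) probe, intensity after compound treatment relative to DMSO-treated cells.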

“THOC6_Q86W42_324_VLTAAGNSCR (UniProt Q86W42)”: the “probe-labelled cysteine peptide fold change” value by setting is: (10 µM) -0.0877; (50 µM) 0.127.

As for “TGFBR1_P36897_461_LRPNIPNRWQSCEALR (UniProt P36897)”, the “probe-labelled cysteine peptide fold change” value is -0.293 (10 µM) and -0.28 (50 µM).

On to “TIGAR_Q9NQ88_114_EECPVFTPPGGETLDQVK (UniProt Q9NQ88)”, for which the “probe-labelled cysteine peptide fold change” value reads like this: (10 µM) -0.225; (50 µM) -1.35.

Consider “TCP1_P17987_147_YINENLIVNTDELGRDCLINAAK (UniProt P17987)”, for which the “probe-labelled cysteine peptide fold change” value by setting is: (10 µM) -0.0323; (50 µM) -0.0166.

On to “TEX2_Q8IWB9_1030_KIEEVSNTPLLLTVEVQECR (UniProt Q8IWB9)”, for which the “probe-labelled cysteine peptide fold change” value (10 µM) is -0.04 and the “probe-labelled cysteine peptide fold change” value (50 µM) was 0.335.

With “TLN1_Q9Y490_1661_APGQLECETAIAALNSCLR (UniProt Q9Y490)”, the “probe-labelled cysteine peptide fold change” value runs as follows: (10 µM) 0.132; (50 µM) 0.138.

In the case of “TIMM50_Q3ZCQ8_249_VVVVDCK (UniProt Q3ZCQ8)”, the “probe-labelled cysteine peptide fold change” value is 0.628 (10 µM) and 0.897 (50 µM).

In the case of “THSD7A_Q9UPZ6_1036_CNSHGYIEEACIIPCPSDCK (UniProt Q9UPZ6)”, the “probe-labelled cysteine peptide fold change” value by setting is: (10 µM) -0.3; (50 µM) 0.058.

As for “TELO2_Q9Y4R8_30_EAIHALSSSEDGGHIFCTLESLK (UniProt Q9Y4R8)”, the “probe-labelled cysteine peptide fold change” value is, setting by setting: (10 µM) -0.121; (50 µM) -0.304.

Regarding “TIMM17B_O60830_17_IVDDCGGAFTMGVIGGGVFQAIK (UniProt O60830)”, the “probe-labelled cysteine peptide fold change” value (10 µM) was -0.00359 and the “probe-labelled cysteine peptide fold change” value (50 µM) came to 0.278.

In the case of “THOC1_Q96FV9_251_NPVQCYEK (UniProt Q96FV9)”, the “probe-labelled cysteine peptide fold change” value is -0.187 (10 µM) and 0.285 (50 µM).

For the target “TK1_P04183_153_LTAVCMECFR (UniProt P04183)”, the “probe-labelled cysteine peptide fold change” value stood at 0.211 (10 µM) and 0.199 (50 µM).

With “TKT_P29401_206_RCEAFGWHAIIVDGHSVEELCK (UniProt P29401)”, the “probe-labelled cysteine peptide fold change” value was -0.167 (10 µM) and -0.116 (50 µM).

With “TDP1_Q9NUW8_251_PYENISLCQAK (UniProt Q9NUW8)”, the “probe-labelled cysteine peptide fold change” value runs as follows: (10 µM) -0.0231; (50 µM) 0.0761.

As for “TESC_Q96BS2_213_FLNMETMALCH (UniProt Q96BS2)”, the “probe-labelled cysteine peptide fold change” value was -0.431 (10 µM) and -1.46 (50 µM).

As for “TKT_P29401_362_EHPDRFIECYIAEQNMVSIAVGCATR (UniProt P29401)”, the “probe-labelled cysteine peptide fold change” value (10 µM) amounted to 0.149 and the “probe-labelled cysteine peptide fold change” value (50 µM) is -0.161.

On to “TEP1_Q99973_21_CLAMLPDLQPLEK (UniProt Q99973)”, for which the “probe-labelled cysteine peptide fold change” value was -0.123 (10 µM) and -0.342 (50 µM).

With “TLN1_Q9Y490_1087_CTQDLGNSTK (UniProt Q9Y490)”, the “probe-labelled cysteine peptide fold change” value turned out to be 0.326 (10 µM) and 0.241 (50 µM).

In the case of “THOC2_Q8NI27_436_DVFNMFCYLGPHLSHDPILFAK (UniProt Q8NI27)”, the “probe-labelled cysteine peptide fold change” value is, setting by setting: (10 µM) 0.0617; (50 µM) 0.215.

As for “TIFA_Q96CG3_56_NSNICHYTFQDK (UniProt Q96CG3)”, the “probe-labelled cysteine peptide fold change” value (10 µM) was determined as 0.0425 and the “probe-labelled cysteine peptide fold change” value (50 µM) was found to be 0.0989.

For “TGFBRAP1_Q8WUH2_33_VNIECVECCGR (UniProt Q8WUH2)”, the “probe-labelled cysteine peptide fold change” value (10 µM) was -0.175 and the “probe-labelled cysteine peptide fold change” value (50 µM) was -0.00571.

Regarding “TICRR_Q7Z2Z1_160_EAEAALGGLVNAVFLLAPCPHSQR (UniProt Q7Z2Z1)”, the “probe-labelled cysteine peptide fold change” value (10 µM) was -0.194 and the “probe-labelled cysteine peptide fold change” value (50 µM) is -0.894.

For the target “TEPSIN_Q96N21_493_LVGAGAAAGESCPDAPR (UniProt Q96N21)”, the “probe-labelled cysteine peptide fold change” value is, setting by setting: (10 µM) -0.182; (50 µM) -0.427.

“TIAL1_Q01085_205+209_NCTVYCGGIASGLTDQLMR (UniProt Q01085)”: the “probe-labelled cysteine peptide fold change” value is, setting by setting: (10 µM) -0.188; (50 µM) -0.414.

In the case of “TKT_P29401_41+42_ISSIQATTAAGSGHPTSCCSAAEIMAVLFFHTMR (UniProt P29401)”, the “probe-labelled cysteine peptide fold change” value was -0.351 (10 µM) and -0.614 (50 µM).

For “TCP1_P17987_76_VLCELADLQDK (UniProt P17987)”, the “probe-labelled cysteine peptide fold change” value (10 µM) turned out to be 0.0996 and the “probe-labelled cysteine peptide fold change” value (50 µM) was determined as 0.0907.

Regarding “TELO2_Q9Y4R8_222_ACVHGR (UniProt Q9Y4R8)”, the “probe-labelled cysteine peptide fold change” value by setting is: (10 µM) -0.0612; (50 µM) -0.414.

Regarding “THBS1_P07996_718_KDNCPNLPNSGQEDYDK (UniProt P07996)”, the “probe-labelled cysteine peptide fold change” value (10 µM) was -0.541 and the “probe-labelled cysteine peptide fold change” value (50 µM) is -0.515.

With “TERF2_Q15554_207_EAAVIICIK (UniProt Q15554)”, the “probe-labelled cysteine peptide fold change” value (10 µM) was -0.0307 and the “probe-labelled cysteine peptide fold change” value (50 µM) was determined as 0.0277.

With “TIMM17A_Q99595_17_IVDDCGGAFTMGTIGGGIFQAIK (UniProt Q99595)”, the “probe-labelled cysteine peptide fold change” value reads like this: (10 µM) -0.147; (50 µM) -0.12.

As for “TIMELESS_Q9UNS1_96_LMVNLTQPALLCFGNLPK (UniProt Q9UNS1)”, the “probe-labelled cysteine peptide fold change” value (10 µM) came out at 0.247 and the “probe-labelled cysteine peptide fold change” value (50 µM) is -1.08.

Consider “TICAM1_Q8IUC6_37_TPRPGCQGQDLLHAMVLLK (UniProt Q8IUC6)”, for which the “probe-labelled cysteine peptide fold change” value is, setting by setting: (10 µM) 0.14; (50 µM) -0.0325.

For the target “THAP12_O43422_230_FETTAVNTLFCSK (UniProt O43422)”, the “probe-labelled cysteine peptide fold change” value was -0.0157 (10 µM) and -0.041 (50 µM).

For the target “TDRD7_Q8NHU6_1029_CNQWSEEASMVFR (UniProt Q8NHU6)”, the “probe-labelled cysteine peptide fold change” value runs as follows: (10 µM) -0.175; (50 µM) -0.845.

Consider “TES_Q9UGI8_361+364_NHAVVCQGCHNAIDPEVQR (UniProt Q9UGI8)”, for which the “probe-labelled cysteine peptide fold change” value was -0.0998 (10 µM) and -0.5 (50 µM).

“TIPRL_O75663_14_DFCFGPWK (UniProt O75663)”: the “probe-labelled cysteine peptide fold change” value reads like this: (10 µM) -0.0376; (50 µM) -0.0619.

In the case of “THG1L_Q9NWX6_279_TKPVPLHCDIIGDAFWK (UniProt Q9NWX6)”, the “probe-labelled cysteine peptide fold change” value runs as follows: (10 µM) -0.236; (50 µM) -0.00933.

“THADA_Q6YHU6_464_YTCLGCLVECIGVEHILAIDK (UniProt Q6YHU6)”: the “probe-labelled cysteine peptide fold change” value (10 µM) came out at 0.454 and the “probe-labelled cysteine peptide fold change” value (50 µM) was determined as 0.464.
